Legend:
[1] = Congo Red stain and rub durability of PVP/crosslinker coatings on PVC coverslips; set-up: key: +++ indicates a full coating, no obvious removal of coating from the piece and a bright red color; ++ is slight removal but majority is still intact, color is still red but may be slightly less red or blotchy; + indicates significant removal of coating, but still coating present. The color is typically pink; − indicates no coating remains, no color at all from the stain; settings: 50 mg/mL PVP Kollidon 90 in isopropanol, PVC coverslip; for Congo Red stain, Illuminated Rubbed / Congo Red stain, Illuminated Unrubbed: UV 5 minutes
[2] = Lubricity test: friction force through silicone pads in water (Harland FTS 5000)
[3] = 0.5 mg/ml crosslinker, 50 mg/ml PVP 70% K90/30% K30, Mentor Self-Cath catheter, nine cycles
[4] = 0.5 mg/ml crosslinker, 50 mg/ml PVP 75% K90/25% K30, Mentor Self-Cath catheter, 300 g clamp force
[5] = 0.5 mg/ml crosslinker, 50 mg/ml PVP 80% K90/20% K30, PVC tubing, fifteen cycles
[6] = 1.0 mg/ml crosslinker, 50 mg/ml PVP 75% K90/25% K30, HDPE rod, 500 g force, eleven cycles

| SMILES | Congo Red stain, Unilluminated Rubbed ([1]; 1 mg/mL crosslinker) | Congo Red stain, Unilluminated Unrubbed ([1]; 1 mg/mL crosslinker) | Congo Red stain, Illuminated Rubbed ([1]; 1 mg/mL crosslinker) | Congo Red stain, Illuminated Unrubbed ([1]; 1 mg/mL crosslinker) | Congo Red stain, Unilluminated Rubbed ([1]; 2 mg/mL crosslinker) | Congo Red stain, Unilluminated Unrubbed ([1]; 2 mg/mL crosslinker) | Congo Red stain, Illuminated Rubbed ([1]; 2 mg/mL crosslinker) | Congo Red stain, Illuminated Unrubbed ([1]; 2 mg/mL crosslinker) | Congo Red stain, Unilluminated Rubbed ([1]; .5 mg/mL crosslinker) | Congo Red stain, Unilluminated Unrubbed ([1]; .5 mg/mL crosslinker) | Congo Red stain, Illuminated Rubbed ([1]; .5 mg/mL crosslinker) | Congo Red stain, Illuminated Unrubbed ([1]; .5 mg/mL crosslinker) | average frictional force [2, 3] | average peak force [2, 3] | average friction force [2, 4] | peak friction force [2, 4] | average frictional force [2, 5] | average peak force [2, 5] | average friction force [2, 6] | peak friction force [2, 6] |
| --- | --- | --- | --- | --- | --- | --- | --- | --- | --- | --- | --- | --- | --- | --- | --- | --- | --- | --- | --- | --- |
| OCCOCCO [Example 14] | [−] | [−] | [++] | [++] | [−] | [−] | [+++] | [+++] | [−] | [−] | [+] | [+] |  |  |  |  |  |  |  |  |
| O=C(c1ccccc1)c1ccc(OCC(O)Cn2c(=O)n(CC(O)COc3ccc(C(=O)c4ccccc4)cc3)c(=O)n(CC(O)COc3ccc(C(=O)c4ccccc4)cc3)c2=O)cc1 (centres unmarked) [Example 1] |  |  |  |  |  |  |  |  |  |  |  |  | 16.2 g | 19.3 g | 11.4 g | 26.2 g | 5.7 g | 8.4 g | 3.9 g | 6.7 g |

Reference: US8487137B2, “Photochemical crosslinkers for polymer coatings and substrate tie-layer” (Innovative Surface Technologies, LLC, priority 2005, dated 2013)
